Reference: patent US5071835A (Bio-Mega Inc., priority 1989, dated 1991)

Assay: general procedure: peptide synthesis; Boc-Phe-CH2-PAB resin
Conditions: whole synthesis, analytical HPLC, trifluoroacetate salt

PEPTIDE1{[ac].F.T.L.D.A.D.F}$$$$V2.0
final HPLC purity: at least 95% homogeneous

Strings that start with PEPTIDE1 are HELM notation: dots part the residues, brackets hold end groups and non-standard residues.
